Test [1] concerns the target functional NMDA receptor channel formed by NR1 and NR2A in HEK cells (UniProt P35439). Put plainly: phage-immunostain of HEK cells expressing NR1 and NR2A, peptide against Mag-4.1 phage.
For test [2] the target is unchanged. The test can be described thus: phage-immunostain of HEK cells cotransfected with NR1 and NR2A.
For test [3] the target is unchanged. Put plainly: phage-immunostain of HEK cells transiently expressing NR1 and NR2A.

Results are given in words; binding and its absence hold for the method and conditions named. Some results given as binding are weak or reduced against the parent protein; the word gives no strength.

In the case of GGGLNDWFITYIGGG [synthetic HPLC-purified Mag-4.1 peptide (…)], the binding entry in test [1] is recorded as “binds”.
On to LNDWFITYI (peptide, not shown: large carriers) [Mag-4.1 phage], for which the binding result in test [2] and in test [3] was “binds” each time.

Source of the values: patent US7361133B2, “Methods of detection utilizing modified bacteriophage” (The Johns Hopkins University, priority 1997, dated 2008).
